Results are given in words; binding and its absence hold for the method and conditions named. Binding seen in cells or lysates may run through a third protein. Some binding calls cover weakened binding; strength is not graded here.
Tests used:
[1] = target: sortilin-related receptor (SORL1) (human (endogenous in neurons from iPSC-derived NSCs)) (UniProt Q92673); assay: co-IP; lysate of control neurons (n.1) after five weeks in culture; precipitated with mouse anti-SORL1 (ab63336) on Dynabeads Protein G, eluted with 0.1 M citrate buffer; blot with rabbit anti-APP (Y188)
[2] = target: amyloid precursor protein (APP) (human (endogenous in neurons from iPSC-derived NSCs)) (UniProt P05067); assay: co-IP; lysates of control and E4/E4 neurons after five weeks in culture, untreated or with vehicle (DMSO 0.01%), beta-secretase inhibitor or gamma-secretase inhibitor (50 nM); precipitated with anti-APP antibody, blot with anti-SORL1

The chains behind the UniProt entries cited, without tags or fusion partners. Residues count along the entry.
UniProt Q92673, residues 82-2214: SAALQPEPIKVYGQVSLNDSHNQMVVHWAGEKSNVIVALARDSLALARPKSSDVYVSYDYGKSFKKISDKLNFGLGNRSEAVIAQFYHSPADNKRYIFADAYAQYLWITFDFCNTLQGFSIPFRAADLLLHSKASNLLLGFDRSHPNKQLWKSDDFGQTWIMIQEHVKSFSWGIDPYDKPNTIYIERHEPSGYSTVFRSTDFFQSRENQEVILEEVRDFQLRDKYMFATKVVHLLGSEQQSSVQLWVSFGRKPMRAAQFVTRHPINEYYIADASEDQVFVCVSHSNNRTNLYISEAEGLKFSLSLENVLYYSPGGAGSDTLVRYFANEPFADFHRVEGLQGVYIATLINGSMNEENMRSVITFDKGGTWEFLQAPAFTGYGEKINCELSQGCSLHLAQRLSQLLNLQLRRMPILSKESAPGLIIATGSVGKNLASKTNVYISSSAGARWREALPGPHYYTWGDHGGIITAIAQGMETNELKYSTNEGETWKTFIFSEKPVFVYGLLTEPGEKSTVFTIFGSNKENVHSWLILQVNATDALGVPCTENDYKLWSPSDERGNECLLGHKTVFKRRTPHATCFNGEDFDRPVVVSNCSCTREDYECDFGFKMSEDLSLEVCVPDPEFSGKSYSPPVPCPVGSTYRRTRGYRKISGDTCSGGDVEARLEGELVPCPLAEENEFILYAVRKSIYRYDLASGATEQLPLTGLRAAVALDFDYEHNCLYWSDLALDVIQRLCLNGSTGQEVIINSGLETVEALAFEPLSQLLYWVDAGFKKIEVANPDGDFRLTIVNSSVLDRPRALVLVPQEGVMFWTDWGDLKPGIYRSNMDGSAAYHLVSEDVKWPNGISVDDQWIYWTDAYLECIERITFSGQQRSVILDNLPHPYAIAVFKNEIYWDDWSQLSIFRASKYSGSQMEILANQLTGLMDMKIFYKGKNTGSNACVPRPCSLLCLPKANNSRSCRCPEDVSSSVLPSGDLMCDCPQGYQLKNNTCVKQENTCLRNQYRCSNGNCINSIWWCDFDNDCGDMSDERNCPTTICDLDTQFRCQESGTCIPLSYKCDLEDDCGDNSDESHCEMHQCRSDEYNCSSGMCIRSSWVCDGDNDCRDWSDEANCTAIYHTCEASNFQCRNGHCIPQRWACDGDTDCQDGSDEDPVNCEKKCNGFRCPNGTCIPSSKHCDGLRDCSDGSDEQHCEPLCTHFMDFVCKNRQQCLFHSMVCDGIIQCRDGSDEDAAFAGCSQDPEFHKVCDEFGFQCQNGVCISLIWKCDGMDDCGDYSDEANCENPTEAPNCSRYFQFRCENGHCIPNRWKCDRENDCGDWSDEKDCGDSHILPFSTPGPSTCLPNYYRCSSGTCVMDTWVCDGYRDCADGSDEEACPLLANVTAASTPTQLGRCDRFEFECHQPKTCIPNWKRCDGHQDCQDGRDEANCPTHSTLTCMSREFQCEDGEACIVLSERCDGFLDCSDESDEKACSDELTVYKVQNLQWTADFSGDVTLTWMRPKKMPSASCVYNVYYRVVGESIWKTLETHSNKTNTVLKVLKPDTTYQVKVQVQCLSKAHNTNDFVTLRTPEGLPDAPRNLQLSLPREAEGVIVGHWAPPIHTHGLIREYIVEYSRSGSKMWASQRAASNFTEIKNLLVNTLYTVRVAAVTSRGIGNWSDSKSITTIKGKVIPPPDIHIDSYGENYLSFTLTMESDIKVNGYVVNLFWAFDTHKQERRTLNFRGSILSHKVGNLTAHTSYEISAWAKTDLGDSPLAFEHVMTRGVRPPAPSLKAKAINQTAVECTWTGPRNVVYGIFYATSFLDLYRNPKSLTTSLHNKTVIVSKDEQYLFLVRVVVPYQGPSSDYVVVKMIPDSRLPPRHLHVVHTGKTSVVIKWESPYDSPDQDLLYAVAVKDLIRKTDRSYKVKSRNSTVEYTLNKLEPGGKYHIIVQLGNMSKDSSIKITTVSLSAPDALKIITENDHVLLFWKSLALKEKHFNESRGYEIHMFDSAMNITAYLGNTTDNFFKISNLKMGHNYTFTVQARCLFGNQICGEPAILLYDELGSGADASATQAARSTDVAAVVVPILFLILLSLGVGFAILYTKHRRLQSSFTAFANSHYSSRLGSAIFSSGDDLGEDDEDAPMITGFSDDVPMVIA
UniProt P05067, residues 18-770: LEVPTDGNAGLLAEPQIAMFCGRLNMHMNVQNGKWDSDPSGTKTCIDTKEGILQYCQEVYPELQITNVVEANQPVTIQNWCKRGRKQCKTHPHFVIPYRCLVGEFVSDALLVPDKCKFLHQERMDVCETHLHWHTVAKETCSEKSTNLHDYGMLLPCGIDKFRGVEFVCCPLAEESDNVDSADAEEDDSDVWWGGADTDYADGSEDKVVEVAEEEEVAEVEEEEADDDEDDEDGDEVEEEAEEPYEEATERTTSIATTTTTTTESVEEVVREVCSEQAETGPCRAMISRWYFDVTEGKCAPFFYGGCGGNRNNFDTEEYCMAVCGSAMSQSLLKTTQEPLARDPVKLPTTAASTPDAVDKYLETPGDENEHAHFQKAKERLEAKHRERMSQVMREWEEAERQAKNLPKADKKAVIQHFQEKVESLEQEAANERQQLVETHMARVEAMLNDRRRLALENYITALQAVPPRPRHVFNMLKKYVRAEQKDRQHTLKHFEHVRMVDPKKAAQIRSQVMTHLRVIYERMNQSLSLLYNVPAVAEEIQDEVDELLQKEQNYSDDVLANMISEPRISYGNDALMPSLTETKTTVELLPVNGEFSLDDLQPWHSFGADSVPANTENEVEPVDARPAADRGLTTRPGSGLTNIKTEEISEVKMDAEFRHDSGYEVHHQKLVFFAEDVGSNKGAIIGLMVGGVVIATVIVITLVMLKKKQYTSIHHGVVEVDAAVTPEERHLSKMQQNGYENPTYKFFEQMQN

| binding [1] | binding [2] | Substance |
| --- | --- | --- |
| binds | – | amyloid precursor protein (APP) (from UniProt P05067 18-770) |
| – | binds | sortilin-related receptor (SORL1) (from UniProt Q92673 82-2214) |
